Assay results: the supplement of paper PMC10849652
The other results are listed elsewhere or left out.

The chains behind the UniProt entries cited, without tags or fusion partners. Where a name states a change or a piece, a line headed by the entry shows the natural chain unless it says otherwise.
UniProt Q8IYB7: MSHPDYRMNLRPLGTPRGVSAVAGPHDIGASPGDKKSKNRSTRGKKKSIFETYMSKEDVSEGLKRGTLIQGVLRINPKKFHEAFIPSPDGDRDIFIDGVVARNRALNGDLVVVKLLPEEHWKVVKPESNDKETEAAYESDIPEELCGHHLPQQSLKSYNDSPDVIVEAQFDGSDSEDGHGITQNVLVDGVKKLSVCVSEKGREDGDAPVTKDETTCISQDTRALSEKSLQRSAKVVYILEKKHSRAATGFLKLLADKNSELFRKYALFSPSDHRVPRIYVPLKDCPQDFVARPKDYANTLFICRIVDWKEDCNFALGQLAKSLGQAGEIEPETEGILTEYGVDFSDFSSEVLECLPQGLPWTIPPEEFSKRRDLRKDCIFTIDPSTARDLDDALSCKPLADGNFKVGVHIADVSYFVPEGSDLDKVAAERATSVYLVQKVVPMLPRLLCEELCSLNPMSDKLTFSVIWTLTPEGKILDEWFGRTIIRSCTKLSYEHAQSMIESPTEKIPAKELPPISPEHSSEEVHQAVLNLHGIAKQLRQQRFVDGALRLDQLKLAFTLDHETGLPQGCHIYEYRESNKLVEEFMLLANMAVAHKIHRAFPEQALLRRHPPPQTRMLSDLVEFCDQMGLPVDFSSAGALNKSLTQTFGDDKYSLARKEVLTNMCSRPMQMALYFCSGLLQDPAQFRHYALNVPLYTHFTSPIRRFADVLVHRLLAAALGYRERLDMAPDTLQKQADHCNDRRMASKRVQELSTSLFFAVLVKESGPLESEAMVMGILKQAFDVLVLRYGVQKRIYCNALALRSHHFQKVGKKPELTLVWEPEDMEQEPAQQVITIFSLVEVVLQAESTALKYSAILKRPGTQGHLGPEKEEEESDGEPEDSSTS
UniProt Q9NR30: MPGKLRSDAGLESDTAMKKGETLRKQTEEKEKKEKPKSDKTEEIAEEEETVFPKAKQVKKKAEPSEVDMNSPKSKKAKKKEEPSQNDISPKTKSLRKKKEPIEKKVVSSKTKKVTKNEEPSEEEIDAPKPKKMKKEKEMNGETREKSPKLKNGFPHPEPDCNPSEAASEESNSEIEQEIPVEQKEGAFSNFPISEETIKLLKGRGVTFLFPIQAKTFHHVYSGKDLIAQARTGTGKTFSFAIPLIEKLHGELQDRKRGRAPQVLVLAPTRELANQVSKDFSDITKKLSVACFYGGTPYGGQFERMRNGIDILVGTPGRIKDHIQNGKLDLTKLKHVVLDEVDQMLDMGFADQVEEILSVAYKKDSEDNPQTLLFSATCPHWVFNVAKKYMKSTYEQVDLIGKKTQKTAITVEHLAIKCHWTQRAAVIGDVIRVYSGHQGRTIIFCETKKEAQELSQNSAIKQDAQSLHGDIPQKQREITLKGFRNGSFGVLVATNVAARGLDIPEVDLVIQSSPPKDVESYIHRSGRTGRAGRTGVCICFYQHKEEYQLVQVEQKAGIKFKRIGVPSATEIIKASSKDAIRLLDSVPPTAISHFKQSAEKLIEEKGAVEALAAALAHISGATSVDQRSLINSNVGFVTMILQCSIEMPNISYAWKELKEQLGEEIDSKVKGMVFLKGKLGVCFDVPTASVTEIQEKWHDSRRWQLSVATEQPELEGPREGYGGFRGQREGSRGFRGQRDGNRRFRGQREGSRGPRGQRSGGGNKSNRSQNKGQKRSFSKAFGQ
UniProt Q13268: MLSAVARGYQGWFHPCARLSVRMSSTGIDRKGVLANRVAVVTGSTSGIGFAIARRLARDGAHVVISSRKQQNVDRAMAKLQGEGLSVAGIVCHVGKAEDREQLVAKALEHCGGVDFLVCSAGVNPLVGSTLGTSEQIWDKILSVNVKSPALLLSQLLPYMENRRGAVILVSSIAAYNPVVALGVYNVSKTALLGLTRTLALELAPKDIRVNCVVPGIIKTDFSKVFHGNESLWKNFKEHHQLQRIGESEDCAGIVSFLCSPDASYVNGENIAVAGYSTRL
UniProt Q9BTZ2: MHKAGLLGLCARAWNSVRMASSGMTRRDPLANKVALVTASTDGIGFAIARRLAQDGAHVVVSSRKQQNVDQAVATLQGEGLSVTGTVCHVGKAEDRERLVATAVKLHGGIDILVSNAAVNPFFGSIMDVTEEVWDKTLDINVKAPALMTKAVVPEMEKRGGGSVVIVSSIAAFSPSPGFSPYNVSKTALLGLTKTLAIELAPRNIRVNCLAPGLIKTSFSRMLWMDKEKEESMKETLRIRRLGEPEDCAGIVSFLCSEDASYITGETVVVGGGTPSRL
UniProt O60610, whole entry, looked up: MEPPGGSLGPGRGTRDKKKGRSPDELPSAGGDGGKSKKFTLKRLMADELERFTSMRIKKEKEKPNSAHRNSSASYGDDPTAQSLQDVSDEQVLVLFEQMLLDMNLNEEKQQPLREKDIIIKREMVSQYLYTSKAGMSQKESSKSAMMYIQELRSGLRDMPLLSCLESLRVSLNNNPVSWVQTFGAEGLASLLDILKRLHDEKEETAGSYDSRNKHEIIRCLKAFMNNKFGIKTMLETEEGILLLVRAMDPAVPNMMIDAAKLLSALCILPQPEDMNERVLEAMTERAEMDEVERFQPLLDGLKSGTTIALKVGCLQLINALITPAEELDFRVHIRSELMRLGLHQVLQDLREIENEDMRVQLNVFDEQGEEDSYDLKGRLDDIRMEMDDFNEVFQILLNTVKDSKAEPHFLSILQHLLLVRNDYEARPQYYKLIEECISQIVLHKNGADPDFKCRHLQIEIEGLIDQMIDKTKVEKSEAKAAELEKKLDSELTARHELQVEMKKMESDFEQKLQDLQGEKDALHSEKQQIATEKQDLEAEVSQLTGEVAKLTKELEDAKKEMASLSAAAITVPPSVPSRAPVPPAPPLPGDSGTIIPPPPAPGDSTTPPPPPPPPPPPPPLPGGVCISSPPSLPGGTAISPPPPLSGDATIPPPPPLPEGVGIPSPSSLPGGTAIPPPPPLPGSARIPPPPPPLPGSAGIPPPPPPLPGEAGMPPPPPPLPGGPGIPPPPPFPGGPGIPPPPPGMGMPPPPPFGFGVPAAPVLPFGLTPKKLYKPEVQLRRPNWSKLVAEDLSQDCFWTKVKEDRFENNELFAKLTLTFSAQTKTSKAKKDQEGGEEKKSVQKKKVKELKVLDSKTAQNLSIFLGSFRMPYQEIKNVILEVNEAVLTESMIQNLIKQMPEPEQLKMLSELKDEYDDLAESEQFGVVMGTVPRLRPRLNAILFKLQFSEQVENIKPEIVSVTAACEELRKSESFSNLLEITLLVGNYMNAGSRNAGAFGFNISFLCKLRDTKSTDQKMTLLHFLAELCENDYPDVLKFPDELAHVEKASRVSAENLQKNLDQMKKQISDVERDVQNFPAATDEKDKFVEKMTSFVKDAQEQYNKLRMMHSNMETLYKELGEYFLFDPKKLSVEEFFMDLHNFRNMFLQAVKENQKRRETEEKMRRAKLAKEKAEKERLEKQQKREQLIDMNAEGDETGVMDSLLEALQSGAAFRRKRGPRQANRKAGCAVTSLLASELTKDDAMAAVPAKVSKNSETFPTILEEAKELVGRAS
UniProt Q9NUU7: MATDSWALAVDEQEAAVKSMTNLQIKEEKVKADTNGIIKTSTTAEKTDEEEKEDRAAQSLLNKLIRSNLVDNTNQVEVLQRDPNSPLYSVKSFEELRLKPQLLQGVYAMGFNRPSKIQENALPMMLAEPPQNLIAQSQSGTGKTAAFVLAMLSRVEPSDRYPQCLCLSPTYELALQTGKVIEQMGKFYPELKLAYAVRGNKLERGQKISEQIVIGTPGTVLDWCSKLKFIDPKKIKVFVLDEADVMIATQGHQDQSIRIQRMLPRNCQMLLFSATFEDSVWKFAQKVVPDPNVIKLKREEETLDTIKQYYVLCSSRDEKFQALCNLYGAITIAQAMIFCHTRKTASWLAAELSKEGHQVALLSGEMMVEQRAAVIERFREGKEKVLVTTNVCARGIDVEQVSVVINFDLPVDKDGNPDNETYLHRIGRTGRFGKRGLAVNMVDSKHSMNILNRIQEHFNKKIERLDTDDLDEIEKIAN
UniProt Q9UNQ2: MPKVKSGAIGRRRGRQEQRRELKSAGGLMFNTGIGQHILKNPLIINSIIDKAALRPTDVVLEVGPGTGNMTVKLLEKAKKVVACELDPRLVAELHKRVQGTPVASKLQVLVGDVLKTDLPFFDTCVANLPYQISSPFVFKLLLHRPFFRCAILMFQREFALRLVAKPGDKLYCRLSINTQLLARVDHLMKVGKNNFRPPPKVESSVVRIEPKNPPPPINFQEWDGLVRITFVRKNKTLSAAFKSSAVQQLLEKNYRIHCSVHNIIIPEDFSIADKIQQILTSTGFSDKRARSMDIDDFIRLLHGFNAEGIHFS
UniProt Q7Z4W1: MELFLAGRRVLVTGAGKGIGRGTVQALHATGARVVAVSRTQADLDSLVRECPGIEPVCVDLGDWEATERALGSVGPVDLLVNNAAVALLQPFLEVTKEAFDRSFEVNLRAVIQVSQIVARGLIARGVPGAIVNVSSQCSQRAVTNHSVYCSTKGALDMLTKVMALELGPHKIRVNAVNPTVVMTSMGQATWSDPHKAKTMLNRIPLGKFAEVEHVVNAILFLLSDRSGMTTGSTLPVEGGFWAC
UniProt Q5TDH0: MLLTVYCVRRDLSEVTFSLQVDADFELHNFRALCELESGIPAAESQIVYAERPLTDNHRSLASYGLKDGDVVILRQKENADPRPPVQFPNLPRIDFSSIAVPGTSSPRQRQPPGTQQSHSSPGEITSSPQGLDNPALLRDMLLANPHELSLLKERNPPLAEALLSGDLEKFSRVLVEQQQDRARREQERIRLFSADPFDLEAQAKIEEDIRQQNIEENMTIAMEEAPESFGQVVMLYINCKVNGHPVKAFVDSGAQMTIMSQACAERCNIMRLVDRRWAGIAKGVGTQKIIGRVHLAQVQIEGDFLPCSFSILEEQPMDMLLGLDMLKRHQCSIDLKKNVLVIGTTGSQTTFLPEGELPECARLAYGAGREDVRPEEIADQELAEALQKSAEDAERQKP
UniProt Q9NY93: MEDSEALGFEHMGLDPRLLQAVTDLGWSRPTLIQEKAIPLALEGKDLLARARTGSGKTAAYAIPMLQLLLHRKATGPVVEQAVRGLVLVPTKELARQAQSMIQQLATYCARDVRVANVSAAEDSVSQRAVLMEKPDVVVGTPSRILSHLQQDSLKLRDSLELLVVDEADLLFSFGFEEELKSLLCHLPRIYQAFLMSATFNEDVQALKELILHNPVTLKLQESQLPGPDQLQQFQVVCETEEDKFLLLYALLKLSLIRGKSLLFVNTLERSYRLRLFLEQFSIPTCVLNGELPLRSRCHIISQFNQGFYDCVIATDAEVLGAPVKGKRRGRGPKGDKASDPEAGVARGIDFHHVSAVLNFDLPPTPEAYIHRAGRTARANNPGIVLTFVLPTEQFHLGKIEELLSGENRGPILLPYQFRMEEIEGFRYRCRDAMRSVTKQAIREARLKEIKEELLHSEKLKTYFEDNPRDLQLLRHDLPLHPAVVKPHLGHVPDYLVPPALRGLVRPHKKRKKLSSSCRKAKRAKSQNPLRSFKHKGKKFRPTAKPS
UniProt Q9NUI1: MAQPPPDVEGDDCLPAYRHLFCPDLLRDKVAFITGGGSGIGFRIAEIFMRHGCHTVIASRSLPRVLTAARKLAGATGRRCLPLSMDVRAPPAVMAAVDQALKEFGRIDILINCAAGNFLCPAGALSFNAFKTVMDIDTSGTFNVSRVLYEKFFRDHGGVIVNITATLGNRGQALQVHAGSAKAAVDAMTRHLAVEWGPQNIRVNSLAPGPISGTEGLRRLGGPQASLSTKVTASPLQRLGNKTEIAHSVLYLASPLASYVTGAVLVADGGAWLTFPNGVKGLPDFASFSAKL
UniProt Q92499: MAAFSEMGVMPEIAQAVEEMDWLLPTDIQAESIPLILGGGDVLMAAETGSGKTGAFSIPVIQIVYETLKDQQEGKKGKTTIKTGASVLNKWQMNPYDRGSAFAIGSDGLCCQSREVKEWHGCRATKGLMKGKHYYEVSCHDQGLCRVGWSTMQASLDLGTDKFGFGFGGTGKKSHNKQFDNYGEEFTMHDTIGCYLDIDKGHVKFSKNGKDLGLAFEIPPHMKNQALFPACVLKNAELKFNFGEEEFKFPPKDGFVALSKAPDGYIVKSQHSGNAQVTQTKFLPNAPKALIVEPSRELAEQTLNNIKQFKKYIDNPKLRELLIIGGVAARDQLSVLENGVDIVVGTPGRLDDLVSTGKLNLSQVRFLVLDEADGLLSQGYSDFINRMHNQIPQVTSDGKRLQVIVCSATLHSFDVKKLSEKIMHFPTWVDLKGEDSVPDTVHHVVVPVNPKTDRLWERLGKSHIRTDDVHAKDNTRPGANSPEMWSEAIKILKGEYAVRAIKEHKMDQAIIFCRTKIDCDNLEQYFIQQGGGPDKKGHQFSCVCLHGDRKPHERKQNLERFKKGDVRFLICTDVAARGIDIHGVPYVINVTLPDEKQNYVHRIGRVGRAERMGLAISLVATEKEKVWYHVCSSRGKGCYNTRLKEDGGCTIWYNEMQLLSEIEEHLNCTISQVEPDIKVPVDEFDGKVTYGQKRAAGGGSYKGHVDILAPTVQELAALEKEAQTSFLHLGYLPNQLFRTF

How the values were obtained:
Assay in all cases: log2 fold change, soluble protein after heating vs DMSO (PISA); higher = thermal stabilisation; K562 cells, 10 uM, 30 min; active = over 0.2 and 3.5 SD of the protein, either way, in both replicates (recomputed)
[1] = compound: CC[C@@H]1C(=O)N(C)c2cnc(Nc3ccc(C(=O)NC4CCN(C)CC4)cc3OC)nc2N1C1CCCC1
Procedure, shortened: (§1)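 Aliquots of K562 cells (2×10^6 cells/mL) treated with 10 μM compound for 30 min were heated for 3 min over 48°C-58°C. After pooling and extraction in PBS with 0.5% NP-40 at 4°C, soluble protein from a 21,000xg, 90 min spin was quantified by TMTpro 16plex LC-MS/MS with channel sums equalised. Thermal stability is expressed against control samples, from duplicates, as a log2 fold change.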

volasertib = compound: CC[C@@H]1C(=O)N(C)c2cnc(Nc3ccc(C(=O)N[C@H]4CC[C@H](N5CCN(CC6CC6)CC5)CC4)cc3OC)nc2N1C(C)C [volasertib]
Procedure, shortened: as §1

[2] = compound: CC[C@H](C)N1C=C(C2=C(C=C(C=C21)C3=CN=C(C=C3)N4CCNCC4)C(=O)NCC5=C(C=C(NC5=O)C)C)C
Procedure, shortened: as §1

epoxomicin = compound: CC[C@H](C)[C@@H](C(=O)N[C@@H]([C@@H](C)O)C(=O)N[C@@H](CC(C)C)C(=O)[C@]1(CO1)C)NC(=O)[C@H]([C@@H](C)CC)N(C)C(=O)C [epoxomicin]
Procedure, shortened: as §1

[3] = compound: CCn1c(C(=O)N(C2CC2)C2CC2)cc2c3c(ncn3C)c(Nc3cc(C)n(C)n3)nc21
Procedure, shortened: as §1

[4] = compound: CCn1cc(-c2ccnc3[nH]c(-c4cccc(CN(C)C)c4)cc23)c(-c2ccc(NC(=O)N(C)C)cc2)n1
Procedure, shortened: as §1

[5] = compound: CN(C)CC(=O)Nc1ccc2[nH]c(=O)c3ccccc3c2c1
Procedure, shortened: as §1

rosiglitazone = compound: CN(CCOC1=CC=C(C=C1)C[C@H]2C(=O)NC(=O)S2)C3=CC=CC=N3 (racemic) [rosiglitazone]
Procedure, shortened: as §1

[6] = compound: CN1C2=C(C3=C1C(=O)N(N=C3)CC4=CC(=CC=C4)N)SC(=C2)S(=O)C
Procedure, shortened: as §1

[7] = compound: CN1CCC(CNc2ccc3ncc(-c4cccc(OC(F)(F)F)c4)n3n2)CC1
Procedure, shortened: as §1

saracatinib = compound: CN1CCN(CCOc2cc(OC3CCOCC3)c3c(Nc4c(Cl)ccc5c4OCO5)ncnc3c2)CC1 [saracatinib]
Procedure, shortened: as §1

sotrastaurin = compound: CN1CCN(c2nc(C3=C(c4c[nH]c5ccccc45)C(=O)NC3=O)c3ccccc3n2)CC1 [sotrastaurin]
Procedure, shortened: as §1

alvocidib = compound: CN1CC[C@H](c2c(O)cc(O)c3c(=O)cc(-c4ccccc4Cl)oc23)[C@H](O)C1 [alvocidib]
Procedure, shortened: as §1

Tubastatin A = compound: CN1CCc2c(c3ccccc3n2Cc2ccc(C(=O)NO)cc2)C1 [Tubastatin A]
Procedure, shortened: as §1

[8] = compound: CNC(=O)C1=CC=CC=C1NC2=NC(=NC=C2Cl)NC3=C(C=C(C=C3)N4CCOCC4)OC
Procedure, shortened: as §1

defactinib = compound: CNC(=O)c1ccc(Nc2ncc(C(F)(F)F)c(NCc3nccnc3N(C)S(C)(=O)=O)n2)cc1 [defactinib]
Procedure, shortened: as §1

rucaparib = compound: CNCc1ccc(-c2[nH]c3cc(F)cc4c3c2CCNC4=O)cc1 [rucaparib]
Procedure, shortened: as §1

[9] = compound: CNc1nc(-c2ccc3c(N)n[nH]c3c2)cc(N2C[C@@H](C(=O)NC3CCCCC3)CC[C@H]2C)n1
Procedure, shortened: as §1

encorafenib = compound: COC(=O)N[C@@H](C)CNc1nccc(-c2cn(C(C)C)nc2-c2cc(Cl)cc(NS(C)(=O)=O)c2F)n1 [encorafenib]
Procedure, shortened: as §1

[10] = compound: COC(=O)[C@H](CCSC)NC(=O)C1=C(C=C(C=C1)NC[C@H](CS)N)C2=CC=CC=C2
Procedure, shortened: as §1

Measured: log2 fold change

DNAH9 (UniProt Q9NYC9)
inactive: [1] 0.037 | volasertib 0.029 | [2] -0.042 | epoxomicin 0.01 | [3] 0.057 | [4] -0.007 | [5] -0.039 | rosiglitazone 0.02 | [6] -0.075 | [7] -0.033 | saracatinib 0.085 | sotrastaurin 0.065 | alvocidib 0.011 | Tubastatin A 0.007 | [8] -0.022 | defactinib -0.009 | rucaparib -0.012 | [9] -0.065 | encorafenib 0.021 | [10] 0.01

DIS3L2 (UniProt Q8IYB7)
inactive: [1] 0.003 | volasertib -0.05 | [2] 0.026 | epoxomicin -0.032 | [3] 0.021 | [4] -0.038 | [5] -0.029 | rosiglitazone 0.263 | [6] 0.002 | [7] -0.014 | saracatinib 0.07 | sotrastaurin 0.097 | alvocidib -0.011 | Tubastatin A 0.109 | [8] 0.079 | defactinib -0.057 | rucaparib 0.009 | [9] -0.015 | encorafenib -0.013 | [10] -0.052

DDX21 (UniProt Q9NR30)
inactive: [1] 0.036 | volasertib 0.145 | [2] 0.005 | epoxomicin -0.122 | [3] 0.022 | [4] 0.161 | [5] -0.047 | rosiglitazone -0.086 | [6] 0.328 | [7] 0.2 | saracatinib -0.097 | sotrastaurin -0.017 | alvocidib 0.204 | Tubastatin A 0.02 | [8] -0.094 | defactinib 0.47 | rucaparib 0.267 | [9] 0.122 | encorafenib 0.101 | [10] 0

DHRS2 (UniProt Q13268)
inactive: [1] 0.127 | volasertib 0.019 | [2] 0.039 | epoxomicin -0.031 | [3] -0.008 | [4] -0.033 | [5] -0.008 | rosiglitazone -0.06 | [6] -0.047 | [7] -0.039 | saracatinib 0.021 | sotrastaurin 0.02 | alvocidib -0.028 | Tubastatin A -0.012 | [8] 0.075 | defactinib -0.046 | rucaparib -0.012 | [9] 0.017 | encorafenib 0.027 | [10] 0.027

3 successive entries from above, for reference:
DNAH9 (UniProt Q9NYC9)
inactive: [1] 0.037 | volasertib 0.029 | [2] -0.042 | epoxomicin 0.01 | [3] 0.057 | [4] -0.007 | [5] -0.039 | rosiglitazone 0.02 | [6] -0.075 | [7] -0.033 | saracatinib 0.085 | sotrastaurin 0.065 | alvocidib 0.011 | Tubastatin A 0.007 | [8] -0.022 | defactinib -0.009 | rucaparib -0.012 | [9] -0.065 | encorafenib 0.021 | [10] 0.01

DIS3L2 (UniProt Q8IYB7)
inactive: [1] 0.003 | volasertib -0.05 | [2] 0.026 | epoxomicin -0.032 | [3] 0.021 | [4] -0.038 | [5] -0.029 | rosiglitazone 0.263 | [6] 0.002 | [7] -0.014 | saracatinib 0.07 | sotrastaurin 0.097 | alvocidib -0.011 | Tubastatin A 0.109 | [8] 0.079 | defactinib -0.057 | rucaparib 0.009 | [9] -0.015 | encorafenib -0.013 | [10] -0.052

DDX21 (UniProt Q9NR30)
inactive: [1] 0.036 | volasertib 0.145 | [2] 0.005 | epoxomicin -0.122 | [3] 0.022 | [4] 0.161 | [5] -0.047 | rosiglitazone -0.086 | [6] 0.328 | [7] 0.2 | saracatinib -0.097 | sotrastaurin -0.017 | alvocidib 0.204 | Tubastatin A 0.02 | [8] -0.094 | defactinib 0.47 | rucaparib 0.267 | [9] 0.122 | encorafenib 0.101 | [10] 0

More records follow:

DHRS4 (UniProt Q9BTZ2)
inactive: [1] 0.082 | volasertib 0.159 | [2] 0.016 | epoxomicin 0.047 | [3] 0.011 | [4] 0.042 | [5] -0.003 | rosiglitazone 0.02 | [6] -0.085 | [7] 0.073 | saracatinib 0.081 | sotrastaurin -0.001 | alvocidib 0 | Tubastatin A -0.039 | [8] 0.002 | defactinib -0.051 | rucaparib -0.071 | [9] 0.001 | encorafenib 0 | [10] 0.002

DIS3L (UniProt Q8TF46)
inactive: [1] -0.059 | volasertib -0.307 | [2] -0.09 | epoxomicin -0.214 | [3] 0.073 | [5] 0.13 | [6] 0.133 | saracatinib -0.075 | sotrastaurin -0.117 | alvocidib -0.122 | Tubastatin A -0.036 | [8] -0.035 | defactinib -0.037 | rucaparib 0.205 | [9] 0 | encorafenib -0.509 | [10] -0.079

DDX3X (UniProt O00571)
inactive: [1] 0.176 | volasertib -0.05 | [2] 0.1 | epoxomicin -0.455 | [3] 0.001 | [4] 0.215 | [5] 0.003 | rosiglitazone -0.047 | [6] 0.592 | [7] 0.096 | saracatinib -0.256 | sotrastaurin -0.126 | alvocidib 0.244 | Tubastatin A 0.081 | [8] -0.003 | defactinib 0.415 | rucaparib 0.678 | [9] 0.114 | encorafenib 0.18 | [10] -0.083

DIAPH1 (UniProt O60610)
inactive: [1] 0.012 | volasertib -0.211 | [2] 0.09 | epoxomicin -0.004 | [4] 0.055 | [5] 0.053 | [6] 0.168 | [7] -0.012 | saracatinib -0.104 | sotrastaurin -0.276 | Tubastatin A 0.086 | [8] 0.044 | defactinib -0.039 | rucaparib 0.219 | [9] 0.125 | encorafenib 0.215 | [10] -0.12

DDX19A (UniProt Q9NUU7)
inactive: [1] -0.074 | volasertib -0.244 | [2] 0.036 | epoxomicin 0.025 | [3] 0.034 | [4] 0.002 | [5] 0.003 | rosiglitazone 0.022 | [6] -0.05 | [7] -0.069 | saracatinib 0.019 | sotrastaurin 0.005 | alvocidib -0.106 | Tubastatin A -0.044 | [8] -0.033 | defactinib -0.089 | rucaparib -0.008 | [9] 0.015 | encorafenib 0.04 | [10] -0.037

DNAH11 (UniProt Q96DT5)
inactive: [1] 0.234 | volasertib 0.426 | [2] -0.029 | epoxomicin -0.157 | [4] 0.176 | [5] -0.111 | [6] 0.298 | [7] -0.424 | saracatinib 0.301 | sotrastaurin 0.317 | Tubastatin A -0.083 | [8] -0.043 | defactinib -0.11 | rucaparib 0.162 | [9] 0.061 | encorafenib 0.152 | [10] 0.049

DIMT1 (UniProt Q9UNQ2)
inactive: [1] 0.171 | volasertib 0.261 | [2] -0.015 | epoxomicin -0.208 | [3] 0.01 | [4] 0.124 | [5] -0.106 | rosiglitazone -0.113 | [6] 0.2 | [7] 0.174 | saracatinib -0.08 | sotrastaurin 0.002 | alvocidib 0.261 | Tubastatin A 0.066 | [8] 0.019 | defactinib 0.29 | rucaparib 0.214 | [9] 0.085 | encorafenib 0.131 | [10] 0.015

DDA1 (UniProt Q9BW61)
inactive: [1] -0.015 | volasertib -0.061 | [2] 0.094 | epoxomicin 0.065 | [3] -0.044 | [4] 0.034 | [5] 0.007 | rosiglitazone 0.041 | [6] -0.003 | [7] -0.006 | saracatinib -0.052 | sotrastaurin 0.021 | alvocidib -0.012 | Tubastatin A -0.008 | [8] -0.009 | defactinib -0.138 | rucaparib -0.055 | [9] 0 | encorafenib -0.045 | [10] -0.027

DCXR (UniProt Q7Z4W1)
inactive: [1] 0.019 | volasertib -0.005 | [2] -0.062 | epoxomicin -0.013 | [3] 0.024 | [4] 0.019 | [5] 0.004 | rosiglitazone -0.01 | [6] -0.056 | [7] -0.005 | saracatinib 0.028 | sotrastaurin 0.049 | alvocidib -0.005 | Tubastatin A -0.015 | [8] -0.005 | defactinib -0.032 | rucaparib -0.037 | [9] -0.052 | encorafenib -0.032 | [10] 0.015

DDI2 isoform 3 (UniProt Q5TDH0)
inactive: [1] -0.004 | volasertib -0.006 | [2] 0.007 | epoxomicin -0.032 | [3] 0.024 | [4] -0.085 | [5] -0.009 | rosiglitazone 0.02 | [6] -0.075 | [7] 0.028 | saracatinib 0.044 | sotrastaurin -0.003 | alvocidib -0.072 | Tubastatin A -0.011 | [8] -0.003 | defactinib -0.064 | rucaparib -0.019 | [9] -0.029 | encorafenib -0.028 | [10] -0.028

DDX56 (UniProt Q9NY93)
inactive: [1] -0.023 | volasertib 0.266 | [2] -0.041 | epoxomicin -0.026 | [3] -0.003 | [4] 0.047 | [5] 0.016 | rosiglitazone -0.047 | [6] 0.259 | [7] 0.391 | saracatinib -0.063 | sotrastaurin -0.065 | alvocidib 0.166 | Tubastatin A 0.24 | [8] 0.081 | defactinib 0.088 | rucaparib 0.046 | [9] 0.101 | encorafenib 0.084 | [10] -0.026

DECR2 (UniProt Q9NUI1)
inactive: [1] 0.002 | volasertib -0.003 | [2] -0.017 | epoxomicin 0.036 | [3] 0.022 | [4] -0.234 | [5] -0.02 | rosiglitazone 0.012 | [6] 0.073 | [7] -0.032 | saracatinib -0.065 | sotrastaurin 0.021 | Tubastatin A -0.043 | [8] -0.122 | defactinib -0.069 | rucaparib 0.01 | [9] 0.061 | encorafenib -0.07 | [10] -0.079

DDX1 (UniProt Q92499)
inactive: [1] 0.12 | volasertib 0.042 | [2] 0.051 | epoxomicin 0.057 | [3] -0.074 | [4] -0.031 | [5] 0.009 | rosiglitazone -0.006 | [6] 0.131 | [7] 0.078 | saracatinib -0.034 | sotrastaurin -0.061 | alvocidib 0.086 | Tubastatin A 0.125 | [8] 0.069 | defactinib 0.211 | rucaparib 0.165 | [9] 0.137 | encorafenib 0.162 | [10] -0.03
